Laboratory results: publication PMC3975426
Results are given in words; binding and its absence hold for the method and conditions named. Binding seen in cells or lysates may run through a third protein.

Amino acid sequences for entries named in this document (tags omitted).
UniProt Q6R327: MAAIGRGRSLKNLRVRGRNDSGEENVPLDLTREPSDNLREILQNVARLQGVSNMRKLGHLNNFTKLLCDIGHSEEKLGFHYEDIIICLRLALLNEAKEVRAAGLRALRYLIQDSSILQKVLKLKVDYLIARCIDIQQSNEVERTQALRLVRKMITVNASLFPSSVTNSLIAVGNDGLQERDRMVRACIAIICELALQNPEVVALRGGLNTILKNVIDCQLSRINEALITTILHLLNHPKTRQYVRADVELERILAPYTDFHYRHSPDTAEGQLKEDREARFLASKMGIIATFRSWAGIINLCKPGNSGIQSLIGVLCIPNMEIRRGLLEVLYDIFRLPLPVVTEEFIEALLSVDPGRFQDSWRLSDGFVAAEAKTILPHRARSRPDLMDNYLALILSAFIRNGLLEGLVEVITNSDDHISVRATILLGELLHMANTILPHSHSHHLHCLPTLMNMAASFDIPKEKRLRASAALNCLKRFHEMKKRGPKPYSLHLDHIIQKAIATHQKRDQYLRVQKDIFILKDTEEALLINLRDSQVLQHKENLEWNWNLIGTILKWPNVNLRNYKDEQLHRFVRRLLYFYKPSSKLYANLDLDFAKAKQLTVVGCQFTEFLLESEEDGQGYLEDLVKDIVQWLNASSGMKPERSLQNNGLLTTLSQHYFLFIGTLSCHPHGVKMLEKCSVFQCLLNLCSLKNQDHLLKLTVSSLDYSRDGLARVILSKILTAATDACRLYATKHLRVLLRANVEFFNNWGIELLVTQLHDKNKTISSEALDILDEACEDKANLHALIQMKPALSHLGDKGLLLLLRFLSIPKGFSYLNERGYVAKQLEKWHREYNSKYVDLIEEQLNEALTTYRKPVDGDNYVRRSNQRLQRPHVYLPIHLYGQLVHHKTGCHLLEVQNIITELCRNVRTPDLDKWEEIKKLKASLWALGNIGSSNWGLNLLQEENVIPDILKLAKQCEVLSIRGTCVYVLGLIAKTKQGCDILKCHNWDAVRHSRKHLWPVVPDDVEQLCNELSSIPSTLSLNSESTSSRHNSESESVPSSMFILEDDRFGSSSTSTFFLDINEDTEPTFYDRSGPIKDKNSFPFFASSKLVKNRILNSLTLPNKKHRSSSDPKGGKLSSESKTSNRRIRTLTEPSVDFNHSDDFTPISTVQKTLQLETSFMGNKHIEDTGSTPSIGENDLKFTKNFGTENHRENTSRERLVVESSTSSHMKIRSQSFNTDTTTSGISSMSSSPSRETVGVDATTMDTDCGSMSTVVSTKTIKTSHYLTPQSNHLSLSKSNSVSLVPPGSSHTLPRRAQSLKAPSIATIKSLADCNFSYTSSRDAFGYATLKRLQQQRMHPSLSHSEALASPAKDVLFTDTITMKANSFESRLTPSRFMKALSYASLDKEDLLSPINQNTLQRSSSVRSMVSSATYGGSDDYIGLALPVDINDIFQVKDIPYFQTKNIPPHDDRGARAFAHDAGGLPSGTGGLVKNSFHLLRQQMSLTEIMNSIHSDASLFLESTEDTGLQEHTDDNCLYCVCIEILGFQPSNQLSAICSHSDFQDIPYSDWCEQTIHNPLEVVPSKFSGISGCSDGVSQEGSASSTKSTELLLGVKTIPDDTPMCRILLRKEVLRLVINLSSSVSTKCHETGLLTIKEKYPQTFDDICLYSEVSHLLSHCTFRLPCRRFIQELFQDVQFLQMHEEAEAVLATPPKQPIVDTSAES
UniProt Q8N122: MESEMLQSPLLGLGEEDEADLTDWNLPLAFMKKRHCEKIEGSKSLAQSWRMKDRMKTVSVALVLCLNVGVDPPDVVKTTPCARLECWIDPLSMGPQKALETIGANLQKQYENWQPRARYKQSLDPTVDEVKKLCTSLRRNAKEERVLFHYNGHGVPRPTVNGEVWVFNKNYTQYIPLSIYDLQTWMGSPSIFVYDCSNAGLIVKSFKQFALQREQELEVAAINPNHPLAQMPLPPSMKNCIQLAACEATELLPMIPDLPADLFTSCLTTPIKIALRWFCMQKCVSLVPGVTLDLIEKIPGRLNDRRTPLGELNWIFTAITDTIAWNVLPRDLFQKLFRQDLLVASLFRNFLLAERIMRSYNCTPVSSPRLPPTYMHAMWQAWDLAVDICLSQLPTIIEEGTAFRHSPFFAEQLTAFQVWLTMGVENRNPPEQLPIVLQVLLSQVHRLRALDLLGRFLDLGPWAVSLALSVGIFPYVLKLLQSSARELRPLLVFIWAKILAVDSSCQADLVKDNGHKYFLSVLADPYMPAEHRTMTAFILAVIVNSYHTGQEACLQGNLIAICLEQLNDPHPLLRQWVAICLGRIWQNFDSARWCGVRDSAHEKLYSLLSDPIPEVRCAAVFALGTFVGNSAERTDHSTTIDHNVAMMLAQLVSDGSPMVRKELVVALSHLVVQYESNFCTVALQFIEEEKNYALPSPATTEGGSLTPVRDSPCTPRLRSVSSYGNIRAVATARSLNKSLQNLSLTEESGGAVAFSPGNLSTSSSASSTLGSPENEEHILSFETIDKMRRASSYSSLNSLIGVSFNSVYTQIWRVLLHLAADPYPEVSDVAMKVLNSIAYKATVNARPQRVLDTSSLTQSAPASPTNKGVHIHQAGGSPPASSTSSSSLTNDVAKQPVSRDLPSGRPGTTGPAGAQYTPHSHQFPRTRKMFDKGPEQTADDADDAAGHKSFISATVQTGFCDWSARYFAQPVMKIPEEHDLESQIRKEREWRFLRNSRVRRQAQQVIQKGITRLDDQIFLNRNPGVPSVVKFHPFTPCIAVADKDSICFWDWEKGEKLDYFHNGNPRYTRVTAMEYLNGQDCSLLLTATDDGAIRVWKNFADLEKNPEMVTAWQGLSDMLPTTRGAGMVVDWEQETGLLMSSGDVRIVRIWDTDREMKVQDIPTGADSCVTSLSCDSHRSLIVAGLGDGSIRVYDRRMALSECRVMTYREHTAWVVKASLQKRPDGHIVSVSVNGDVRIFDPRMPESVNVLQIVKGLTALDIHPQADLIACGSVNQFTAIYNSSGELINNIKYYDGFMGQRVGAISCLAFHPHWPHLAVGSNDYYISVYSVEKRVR

Target: rapamycin-insensitive companion of mTOR (rictor) (human (endogenous in CCRF-CEM and HEK293)) (UniProt Q6R327)
Assay: co-IP; endogenous mTOR complexes precipitated from CCRF-CEM or HEK293 lysates with raptor or rictor antibody and Dynabeads G, overnight at 4 °C; lysis in CHAPS buffer lacking NaCl (40 mM HEPES pH 7.4, 0.3% CHAPS); washes with CHAPS buffer containing 150 mM NaCl; immunoblot of the elutes

binding: no binding
Substance: regulatory-associated protein of mTOR (Raptor) (from UniProt Q8N122 1-1335)
